In US10519101B2, “Trans-cyclooctene amino and hydroxy acids and their use in multiple cycloaddition reactions for labeling of molecules” (EUROPEAN MOLECULAR BIOLOGY LABORATORY, priority 2014, dated 2019):
Some of these results come from one statement about several compounds together.

Test: Stability of trans-cyclooctenyl isomers against thiols by 1H-NMR
Type: physicochemical
Settings: two equivalents of cysteamine, dPBS/dioxane-d8 1:1, 24 h at 60° C.
Experimental: In order to test for stability against thiols, UAAs 2-4 were separately combined with two equivalents of cysteamine hydrochloride in dPBS/dioxane-d8 (v/v 1:1), NMR tubes were tightly sealed, and incubated at rt, 37° C., or 60° C. ^1H-NMR spectra were measured after 24 h of incubation and later time points (in case of 3). […] For all three trans-cyclooctene-containing UAAs, conversion of the trans-cyclooctenyl-form to its corresponding cis-cyclooctenyl-form was observed (FIG. 8b). […] These numbers were obtained by comparing the integrals for the double bond protons and the —CHO— protons (if possible/applicable) before and after the heat treatment as it was done before by others for similar compounds ((a) B. R. Varga, M. Kallay, K. Hegyi, S. Beni, P. Kele, Chemistry 2012, 18, 822-828; b) R. van Geel, G. J. Pruijn, F. L. van Delft, W. C. Boelens, Bioconjugate chemistry 2012, 23, 392-398; J. Yang, J. Seckute, C. M. Cole, N. K. Devaraj, Angew Chem Int Ed Engl 2012, 51, 7476-7479). Observations at different temperatures were consistent with the expectation that the higher the temperature, the faster/easier the isomerization. Isomerization to the cis-form continued in samples kept at rt or 37° C. after 24 h (data not shown).

Compound	converted into cis-form	trans-isomer left [%]
N[C@@H](CCCCNC(=O)OC1CC/C=C/CCC1)C(=O)O (stereo partly drawn) [Compound 2, N-ε-((trans-Cyclooct-4-en-1-yloxy)carbonyl)-L-lysine]	more than 95%	< 5
N[C@@H](CCCCNC(=O)OC1C/C=C/CCCC1)C(=O)O (stereo partly drawn) [Compound 4, N-ε-((trans-Cyclooct-3-en-1-yloxy)carbonyl)-L-lysine]	more than 95%	< 5
